Results are given in words; binding and its absence hold for the method and conditions named. In cells and extracts the contact can be indirect. Some entries that bind do so weakly or less than the wild type. Tags and fused reporters may be left off the sequences shown.
Tests used:
[1] = target: T1, BirA*-Flag-JUN WT (293T), P05412; assay: co-IP; 293T cells transfected with BirA*-Flag JUN alleles and HA-JUN WT; lysed in RIPA buffer 48 h after transfection; Anti-Flag M2 agarose, 4 °C, 3 h; eluted with Flag peptide; immunoblot for HA-JUN WT; conditions: remark: other sources report otherwise
T1 chain: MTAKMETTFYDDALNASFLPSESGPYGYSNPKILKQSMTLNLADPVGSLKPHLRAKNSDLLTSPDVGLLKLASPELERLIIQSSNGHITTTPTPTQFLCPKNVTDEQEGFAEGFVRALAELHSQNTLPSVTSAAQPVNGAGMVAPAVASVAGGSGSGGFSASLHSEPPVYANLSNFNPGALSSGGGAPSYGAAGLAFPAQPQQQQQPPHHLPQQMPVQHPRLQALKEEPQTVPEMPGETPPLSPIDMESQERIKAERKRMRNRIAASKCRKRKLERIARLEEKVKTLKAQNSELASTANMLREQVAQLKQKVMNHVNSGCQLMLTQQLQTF

[2] = target: T1, BirA*-Flag-JUN WT (293T), P05412; assay: co-IP; 293T cells transiently transfected with BirA* fusion protein, HA-JUN and FOS-V5 (enforced FOS expression); Flag immunoprecipitation, precipitates assayed for HA-JUN and FOS-V5; conditions: remark: other sources report otherwise

B1: HA-JUN WT, P05412 1-331 (protein)
chain: T1 chain
In the case of B1, the binding [1] is reported as “binds” and the binding [2] is reported as “binds”.
